Experimental data reported in PubChem BioAssay AID493014 (National Center for Advancing Translational Sciences (NCATS), 2011).
This is one part of the list. These are further read-outs of the screen, such as a control signal, another cell line or another target. No call is given for them. The list favours compounds with an active or inconclusive main result. The note in brackets gives the kind of curve behind each potency; many fits are weak.

Assay: qHTS Assay to Find Inhibitors of Chronic Active B-Cell Receptor Signaling
Details: ABC-DLBCL IkBa-CBG/CBR reporter, luminescence ratio (green luciferase fused to IkBa over red control in TMD8 lymphoma cells), 4 h
Outline: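 TMD8 human ABC-DLBCL cells with doxycycline-inducible IκBα–green luciferase fusion and unfused red luciferase, in 0.5% FBS medium; compounds up to 46 uM, 4 h at 37C. Green/red luminescence ratio, filter-overlap corrected, fitted to concentration-response curves.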

[1] = measured here: CBR red luminescence, cell number
[2] = measured here: IkBa-CBG green luminescence

SMILES | AC50 [1] | AC50 [2]
O=C(COC(=O)Cc1c(Cl)cccc1Cl)NCc1ccco1 | 36.6 µM [rising, partial curve, poor fit] | –
Cc1ccc(C(=O)Nc2ccc(NC(=O)c3cccs3)cc2)cc1[N+](=O)[O-] | 14.1 µM [rising, partial curve, poor fit] | –
CCOc1cc(/C=C(\C#N)C(=O)Nc2cccc(C(=O)O)c2)cc(Br)c1OC(=O)c1ccc(OC)cc1 | 35.5 µM [falling, single point] | –
Nc1c(C(=O)CSc2nnnn2-c2ccc(O)cc2)c(=O)[nH]c(=O)n1C1CC1 | 9.2 µM [rising, partial curve] | –
Cc1ccc(OCC(=O)Nc2ccccc2-c2ccccc2)cc1 | 11.2 µM [rising, partial curve] | –
NNC(=O)c1ccccc1OCc1ccccc1 | 2.24 µM [falling, full curve, poor fit] | –
O=C(Nc1ccccc1[N+](=O)[O-])c1nc[nH]c1C(=O)NCCO | 0.562 µM [falling, partial curve, poor fit] | –
Cc1ccc(N/C(=C\C(=O)c2ccccc2)C(=O)O)cc1 | 31.6 µM [falling, single point] | –
O=C(COc1ccccc1)Nc1cccc2nsnc12 | 22.4 µM [falling, single point] | –
CN(C)S(=O)(=O)c1cccc(NC(=O)COC(=O)c2cc3ccccc3oc2=O)c1 | 35.5 µM [falling, single point] | –
CC1CCN(C(=S)c2cn(Cc3ccccc3F)c3ccccc23)CC1 | 3.16 µM [rising, single point] | –
COc1ccccc1-n1nnnc1S(=O)(=O)Cc1ccc(Cl)cc1 | 6.51 µM [falling, partial curve, poor fit] | –
O=C(CN1c2cccc3cccc(c23)S1(=O)=O)NC1CCCCC1 | 0.146 µM [rising, full curve, poor fit] | –
Cc1ccc2c(c1)[C@H]1[C@H](CO2)[C@H](c2ccccc2)[C@]2(C)C(=O)Nc3ccc(Cl)cc3C(=O)N12 | 20.6 µM [falling, single point] | –
O=C(CCc1c[nH]c2ccccc12)NCCOc1ccccc1 | 3.16 µM [rising, full curve, poor fit] | –
COc1ccccc1-c1nn2c(-c3ccco3)nnc2s1 | 7.94 µM [rising, partial curve, poor fit] | –
CC(=O)Nc1cccc(NC(=O)CSc2nc3ccccc3o2)c1 | 29.1 µM [falling, single point] | –
Cn1c(=O)cc(SCC(=O)NCCCN2CCN(c3ccc(F)cc3)CC2)c2ccccc21 | 35.5 µM [falling, single point] | –
COc1ccc2c(c1OC)C(=O)N1N=C(c3ccc(Cl)cc3)CC21 (stereo not drawn) | 18.4 µM [falling, single point] | –
CCOC(=O)C1CCCN1C(=O)c1ccc(OC)c(Br)c1 (stereo not drawn) | 2.24 µM [rising, partial curve] | –

SMILES | AC50 [1] | AC50 [2]
Cc1ccc(NC(=O)/C=C/c2ccco2)nc1 | 10.3 µM [falling, partial curve] | 2.06 µM [falling, full curve]
CN(C(=O)COC(=O)c1cc(-c2ccc(Cl)s2)nc2ccccc12)C1CCS(=O)(=O)C1 (stereo not drawn) | 3.16 µM [rising, single point] | –
O=C(NCCN1CCCCC1)Nc1cccc(C(F)(F)F)c1 | 15.8 µM [rising, single point] | –
O=C(Nc1ccccc1C(=O)O)c1ccc(Br)c(S(=O)(=O)NCc2ccccc2)c1 | 12.6 µM [falling, single point] | –
COc1ccc(-c2c(C)n([O-])c3c([n+]2=O)CCC3)cc1OC | 0.82 µM [rising, full curve, poor fit] | –
CCOC(=O)c1csc(NC(=O)CC2CCCC2)n1 | 15.8 µM [falling, single point] | –
COc1ccc(S(=O)(=O)N(C)C[C@H]2Oc3ccc(NC(=O)Cc4ccccc4)cc3C(=O)N([C@H](C)CO)C[C@@H]2C)cc1 | 14.6 µM [rising, partial curve] | –
CCCCNC(=O)N(O)C1N(/N=C/c2ccccc2OC)C(=S)SC1(C)C (stereo not drawn) | 35.5 µM [falling, single point] | –
Cc1n[nH]c(C)c1S(=O)(=O)N(CC(=O)Nc1ccc2c(c1)OCCO2)c1ccc(C(C)C)cc1 | 35.5 µM [falling, single point] | 1 µM [rising, full curve, poor fit]
CNS(=O)(=O)c1cc(S(=O)(=O)NC)c2cccc3c2c1NC3=O | 35.5 µM [falling, single point] | –
CCOC(=O)c1nnc(-c2ccccc2)[nH]c1=O | 14.1 µM [falling, single point] | –
Cc1cccc(Oc2nc(-c3ccccc3)cc(C)c2S(C)(=O)=O)c1C | 6.51 µM [rising, partial curve, poor fit] | –
O=S(=O)(NCC(c1ccco1)N1CCc2ccccc2C1)c1ccc(F)cc1 (stereo not drawn) | 3.66 µM [rising, partial curve, poor fit] | –
COCCCNc1c2c3c(cccc3[nH]c1=O)C(=O)c1ccccc1-2 | 6.51 µM [falling, partial curve, poor fit] | 11.6 µM [rising, partial curve, poor fit]
CN(C)c1oc(-c2cccs2)nc1C#N | 0.562 µM [rising, full curve, poor fit] | –
Cc1cc(Cl)ccc1OCC(=O)NC1CCCC1 | 8.2 µM [rising, partial curve] | –
Cc1noc(C)c1COC(=O)CCCc1c[nH]c2ccccc12 | 6.51 µM [falling, single point] | –
Cc1ccc(C)c2nc3sc(C(=O)N4CCCc5ccccc54)c(N)c3cc12 | 31.6 µM [rising, single point] | –
COc1ccc(C(=O)NOCc2ccccc2)cc1 | 7.31 µM [falling, partial curve] | –
COC(=O)CN1C(=O)Nc2ccc(Cl)cc2C1c1ccccc1 (stereo not drawn) | 6.31 µM [rising, single point] | –
